In article PMC12489035:
These are yes or no findings as the source states them, for the method shown. Binding seen in cells or lysates may run through a third protein. Here binding means that the protein was enriched with, or labelled near, the bait; the list need not be complete.

Sequences of proteins named here, by UniProt entry; tags and fusion partners are left off.
UniProt Q7Z4V5: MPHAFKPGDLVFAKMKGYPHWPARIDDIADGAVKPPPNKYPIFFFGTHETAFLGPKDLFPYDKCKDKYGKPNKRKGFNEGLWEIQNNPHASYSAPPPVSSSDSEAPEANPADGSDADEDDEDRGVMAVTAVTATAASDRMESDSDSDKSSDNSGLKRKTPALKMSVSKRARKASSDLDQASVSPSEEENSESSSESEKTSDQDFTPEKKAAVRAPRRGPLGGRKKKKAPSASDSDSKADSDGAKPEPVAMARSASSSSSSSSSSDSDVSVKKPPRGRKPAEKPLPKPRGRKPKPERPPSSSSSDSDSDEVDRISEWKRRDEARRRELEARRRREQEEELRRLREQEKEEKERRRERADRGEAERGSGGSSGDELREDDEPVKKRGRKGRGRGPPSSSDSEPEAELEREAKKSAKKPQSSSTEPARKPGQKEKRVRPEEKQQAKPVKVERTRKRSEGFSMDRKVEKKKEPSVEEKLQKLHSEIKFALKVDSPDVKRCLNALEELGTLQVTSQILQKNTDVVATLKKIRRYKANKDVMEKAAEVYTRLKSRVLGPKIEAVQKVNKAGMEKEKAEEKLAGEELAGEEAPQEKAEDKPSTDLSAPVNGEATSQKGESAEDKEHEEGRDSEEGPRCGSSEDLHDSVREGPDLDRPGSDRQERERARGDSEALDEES
UniProt Q9Y2A7: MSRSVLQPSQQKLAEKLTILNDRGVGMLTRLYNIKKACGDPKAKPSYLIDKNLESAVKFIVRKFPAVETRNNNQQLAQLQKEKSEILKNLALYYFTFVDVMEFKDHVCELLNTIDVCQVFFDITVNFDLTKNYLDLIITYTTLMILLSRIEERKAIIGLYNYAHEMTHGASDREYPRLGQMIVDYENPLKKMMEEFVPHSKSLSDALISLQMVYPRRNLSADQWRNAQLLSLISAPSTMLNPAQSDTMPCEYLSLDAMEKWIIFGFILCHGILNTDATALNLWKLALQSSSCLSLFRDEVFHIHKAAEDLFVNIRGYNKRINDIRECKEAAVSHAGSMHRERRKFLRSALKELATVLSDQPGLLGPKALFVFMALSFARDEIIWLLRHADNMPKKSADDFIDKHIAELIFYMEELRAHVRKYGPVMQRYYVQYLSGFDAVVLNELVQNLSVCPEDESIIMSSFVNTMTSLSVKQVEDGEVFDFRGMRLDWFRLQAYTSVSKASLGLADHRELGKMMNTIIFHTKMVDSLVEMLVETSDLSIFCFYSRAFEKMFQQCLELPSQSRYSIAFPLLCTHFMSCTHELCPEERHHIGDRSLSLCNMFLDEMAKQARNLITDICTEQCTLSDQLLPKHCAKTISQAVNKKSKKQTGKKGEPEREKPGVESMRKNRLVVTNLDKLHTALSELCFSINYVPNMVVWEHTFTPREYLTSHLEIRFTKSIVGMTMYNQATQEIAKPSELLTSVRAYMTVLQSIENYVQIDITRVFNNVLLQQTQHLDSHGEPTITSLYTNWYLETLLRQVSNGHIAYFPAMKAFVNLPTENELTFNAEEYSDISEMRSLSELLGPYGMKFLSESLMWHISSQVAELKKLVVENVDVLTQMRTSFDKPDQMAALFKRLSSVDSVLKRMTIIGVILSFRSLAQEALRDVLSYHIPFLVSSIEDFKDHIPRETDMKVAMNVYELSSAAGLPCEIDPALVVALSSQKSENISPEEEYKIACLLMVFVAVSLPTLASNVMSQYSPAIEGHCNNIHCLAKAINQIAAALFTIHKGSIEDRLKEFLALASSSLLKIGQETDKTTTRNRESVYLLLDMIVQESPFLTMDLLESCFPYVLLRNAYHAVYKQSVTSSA
UniProt P49757: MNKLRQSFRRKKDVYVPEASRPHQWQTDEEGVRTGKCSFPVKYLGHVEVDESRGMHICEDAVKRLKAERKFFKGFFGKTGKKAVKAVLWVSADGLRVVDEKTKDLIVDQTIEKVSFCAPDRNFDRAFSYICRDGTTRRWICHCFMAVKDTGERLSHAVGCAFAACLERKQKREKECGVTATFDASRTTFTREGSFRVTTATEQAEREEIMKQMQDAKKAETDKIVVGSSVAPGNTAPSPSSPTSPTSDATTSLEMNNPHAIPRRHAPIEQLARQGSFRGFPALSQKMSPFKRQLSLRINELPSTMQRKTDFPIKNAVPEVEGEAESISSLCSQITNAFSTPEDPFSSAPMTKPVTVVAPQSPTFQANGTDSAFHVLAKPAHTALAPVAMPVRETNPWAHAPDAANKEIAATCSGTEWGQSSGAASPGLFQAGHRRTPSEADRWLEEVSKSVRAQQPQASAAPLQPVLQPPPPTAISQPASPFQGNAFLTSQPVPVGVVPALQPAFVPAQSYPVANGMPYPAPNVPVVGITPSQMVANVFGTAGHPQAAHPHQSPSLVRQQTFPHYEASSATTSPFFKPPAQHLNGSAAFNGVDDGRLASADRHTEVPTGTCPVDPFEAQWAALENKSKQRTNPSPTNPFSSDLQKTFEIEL
UniProt Q9NR12: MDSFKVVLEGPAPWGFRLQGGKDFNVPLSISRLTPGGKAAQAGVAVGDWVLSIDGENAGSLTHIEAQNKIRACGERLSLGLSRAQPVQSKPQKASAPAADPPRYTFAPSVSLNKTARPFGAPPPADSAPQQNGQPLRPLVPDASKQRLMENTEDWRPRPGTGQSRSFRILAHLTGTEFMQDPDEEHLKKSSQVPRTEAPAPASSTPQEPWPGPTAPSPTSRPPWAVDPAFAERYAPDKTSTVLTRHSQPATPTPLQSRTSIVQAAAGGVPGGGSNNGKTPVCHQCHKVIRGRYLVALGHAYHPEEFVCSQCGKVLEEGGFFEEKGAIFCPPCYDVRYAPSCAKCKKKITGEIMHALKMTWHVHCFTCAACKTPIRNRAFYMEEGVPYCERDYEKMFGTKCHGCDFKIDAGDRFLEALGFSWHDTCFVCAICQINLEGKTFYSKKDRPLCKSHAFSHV
UniProt Q9Y3P9: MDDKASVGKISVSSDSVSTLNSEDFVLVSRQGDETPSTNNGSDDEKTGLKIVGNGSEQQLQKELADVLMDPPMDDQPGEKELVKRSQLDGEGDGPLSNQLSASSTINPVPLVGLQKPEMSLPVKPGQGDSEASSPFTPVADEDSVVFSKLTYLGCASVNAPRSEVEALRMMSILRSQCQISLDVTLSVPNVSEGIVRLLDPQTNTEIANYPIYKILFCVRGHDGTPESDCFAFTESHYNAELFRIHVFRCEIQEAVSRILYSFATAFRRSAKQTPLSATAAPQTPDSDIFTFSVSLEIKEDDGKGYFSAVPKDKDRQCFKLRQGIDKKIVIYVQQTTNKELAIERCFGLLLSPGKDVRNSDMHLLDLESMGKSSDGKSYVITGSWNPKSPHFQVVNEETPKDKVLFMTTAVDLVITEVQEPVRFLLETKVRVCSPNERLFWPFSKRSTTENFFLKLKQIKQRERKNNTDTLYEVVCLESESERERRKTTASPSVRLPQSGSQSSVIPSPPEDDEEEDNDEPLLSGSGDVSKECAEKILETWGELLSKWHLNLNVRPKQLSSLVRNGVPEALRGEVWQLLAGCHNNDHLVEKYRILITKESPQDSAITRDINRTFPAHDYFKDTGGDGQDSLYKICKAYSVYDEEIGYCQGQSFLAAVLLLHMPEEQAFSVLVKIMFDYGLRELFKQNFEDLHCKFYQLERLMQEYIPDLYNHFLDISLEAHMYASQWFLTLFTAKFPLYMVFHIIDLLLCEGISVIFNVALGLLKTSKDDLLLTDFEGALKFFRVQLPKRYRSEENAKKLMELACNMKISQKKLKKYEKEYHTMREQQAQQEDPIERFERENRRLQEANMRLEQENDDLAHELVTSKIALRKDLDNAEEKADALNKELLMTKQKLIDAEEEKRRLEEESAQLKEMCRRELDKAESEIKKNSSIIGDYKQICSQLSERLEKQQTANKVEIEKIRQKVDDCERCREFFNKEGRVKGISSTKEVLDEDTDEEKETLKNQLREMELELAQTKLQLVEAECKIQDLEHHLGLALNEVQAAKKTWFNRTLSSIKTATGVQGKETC
UniProt Q4G0F5: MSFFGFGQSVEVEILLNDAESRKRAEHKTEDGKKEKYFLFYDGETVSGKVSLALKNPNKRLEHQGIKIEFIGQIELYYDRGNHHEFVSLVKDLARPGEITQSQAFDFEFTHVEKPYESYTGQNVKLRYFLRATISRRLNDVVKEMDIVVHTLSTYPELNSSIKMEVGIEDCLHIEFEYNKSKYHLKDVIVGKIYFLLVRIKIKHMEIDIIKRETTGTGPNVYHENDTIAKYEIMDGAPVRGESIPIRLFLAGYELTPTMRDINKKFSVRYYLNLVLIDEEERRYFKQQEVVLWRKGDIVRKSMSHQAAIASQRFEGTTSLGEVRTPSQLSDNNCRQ

molecular target: GST fused to the WT cytosolic tail of APP (649-695) (UniProt P05067); experiment: affinity purification with mass spectrometry; GST-APP tail (or GST only) on glutathione-Sepharose beads, incubated overnight at 4 °C with pre-cleared HEK293T lysate in 50 mM Tris pH 7.4, 150 mM NaCl, 1 mM EDTA, 5 mM 2-mercaptoethanol, 1% triton-X100; eluted with […] NaCl; LC-MS/MS; three independent experiments; only the target purified

Row | Substance | binding
1 | HDGFL2 (from UniProt Q7Z4V5 1-671) | binds
2 | NCKAP1 (from UniProt Q9Y2A7 1-1128) | binds
3 | NUMB (from UniProt P49757 1-651) | binds
4 | PDLIM7 (from UniProt Q9NR12 1-457) | binds
5 | RABGAP1 (from UniProt Q9Y3P9 1-1069) | binds
6 | VPS26A (from UniProt O75436 1-327) | binds
7 | VPS26B (from UniProt Q4G0F5 1-336) | binds
